# Data as given in PubChem BioAssay AID504467 (National Center for Advancing Translational Sciences (NCATS), 2011).
# Out of some 330,000 compounds screened, about 7,700 (2.3%) were called active. The inconclusive results got no clear call from the source; some entries with a clear call stand among them for comparison. Calls come from the whole dose curve; as a rule, active = well fitted inhibition curve with a large enough effect; inconclusive = small, poorly fitted or top-dose-only effect, or effect the other way; inactive = flat fitted curve, though single readings scatter. Potencies beside an inconclusive call are fits to weak or partial responses and may not hold up.
# Assay: qHTS screen for small molecules that inhibit ELG1-dependent DNA repair in human embryonic kidney (HEK293T) cells expressing luciferase-tagged ELG1; note: nearly all actives have a fitted effect of over 55% in size
# Settings: HEK293T ELG1-luciferase reporter, luminescence, 16 h, DNA damage induced by 5-fluorouridine; activity change, negative = inhibition: at 46.1 µM (top of the series)
# Outline: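 5-Fluorouridine DNA damage + compound/DMSO, 2,000 cells/well, 16 h, 37 °C/5% CO2. ONE-Glo, 30 min RT, luminescence. Readout = decrease in reporter signal.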
# % is set by controls: 0 for no effect and ±100 for the full control effect; potency is the fitted concentration of half-maximal effect.
SMILES,Potency,"activity change, negative = inhibition"
Cc1cc(C)c2c(N)c(C(=O)N3CCc4ccccc4C3)sc2n1,"inconclusive: 29.1 µM [inhibitor, partial curve, poor fit]",
Cc1cc(OCC(O)CNC(C)c2ccccc2)ccc1C(C)C (stereo not drawn),"inconclusive: 29.1 µM [inhibitor, partial curve, poor fit]",
Cc1ccc(C2C3=C(CC(C)(C)CC3=O)N=C3c4ccccc4C(=O)C32)cc1 (stereo not drawn),"inconclusive: 29.1 µM [inhibitor, single point]",
CCC(C(=O)NCCC(C)C)N(Cc1ccccc1Cl)C(=O)c1snc(C(N)=O)c1N (stereo not drawn),"inconclusive: 18.3 µM [inhibitor, single point]",
O=C(NCc1ccco1)c1ccc(Br)c(S(=O)(=O)N2CCCCC2)c1,"inconclusive: 29.1 µM [inhibitor, single point]",
O=C(CSc1nccc(=O)[nH]1)c1c[nH]c2ccccc12,"inconclusive: 23.1 µM [activator, partial curve, poor fit]",
O=C(N/N=C/c1cn(-c2ccccc2)nc1-c1cccnc1)c1cccnc1,"inconclusive: 32.6 µM [inhibitor, single point]",
Nc1c(C(=O)NCc2ccccc2)c2nc3ccccc3nc2n1CCCN1CCOCC1,active: 20.6 µM,
CCC1(c2ccccc2)NC(=O)N(CC(=O)N(C)CC(=O)Nc2ccc(F)c(F)c2F)C1=O (stereo not drawn),,inactive: 12.9%
CCCN=C1N(CC)C[C@@H]2[C@@H]3C(=O)N(C)C(=O)[C@@H]3[C@](C)(C(=O)OC)N12,,inactive: 17.2%
COc1ccc2sc(-c3ccccc3OC)c(-c3ccc(OC)nc3)c2c1,"inconclusive: 25.9 µM [activator, partial curve, poor fit]",
Cc1ccc(Cl)cc1N1CCN(C(=O)C(=O)N2CCCCC2)CC1,"inconclusive: 20.6 µM [inhibitor, single point]",
Cc1ccccc1C(=O)Nc1ccnn1C1CCN(Cc2ccncc2)CC1,"inconclusive: 29.1 µM [activator, single point]",
CCOC(=O)N1CCN(C(=O)c2ccc(Cl)c(S(=O)(=O)N3CCOCC3)c2)CC1,,inactive: 1.58%
CSc1ccc(CNC(=O)C(C)n2nc(C)c3c(C)n(-c4ccccc4)nc3c2=O)cc1 (stereo not drawn),,inactive: -3.17%
CN1CCN(NC(=O)c2c(-c3ccccc3)sc3ccccc23)CC1,"inconclusive: 18.3 µM [activator, single point]",
O=C1CCCN1CCC(=O)N1CCCC(CO)(Cc2ccccc2)C1 (stereo not drawn),"inconclusive: 16.4 µM [activator, partial curve]",
COCCCNC(=O)c1sc2ncn(CC(=O)Nc3ccc(C)c(Cl)c3)c(=O)c2c1C,"inconclusive: 32.6 µM [inhibitor, single point]",
CCCn1nnnc1NCc1ccccc1OCc1ccc(F)cc1,"inconclusive: 29.1 µM [inhibitor, single point]",
COc1ccc(OCC(=O)Nc2nc3ccc(NC(C)=O)cc3s2)cc1,"inconclusive: 16.4 µM [activator, partial curve, poor fit]",
Cc1ccc(O)c(C(=O)/C=C/c2ccc3c(c2)OCCCO3)c1,"inconclusive: 10.3 µM [activator, partial curve]",
CCN(CC)CCNC(=O)c1ccc(NC(=O)c2cn(-c3ccc(F)cc3)nc2-c2cccc(OC)c2)cc1,"inconclusive: 13 µM [inhibitor, partial curve]",
O=[N+]([O-])c1ccc(O)c(Nc2c([N+](=O)[O-])ccc3nonc23)c1,"inconclusive: 29.1 µM [inhibitor, single point]",

# Exported with tabs: entries from further up
SMILES	Potency	activity change, negative = inhibition
Nc1c(C(=O)NCc2ccccc2)c2nc3ccccc3nc2n1CCCN1CCOCC1	active: 20.6 µM	
CCC1(c2ccccc2)NC(=O)N(CC(=O)N(C)CC(=O)Nc2ccc(F)c(F)c2F)C1=O (stereo not drawn)		inactive: 12.9%
CCCN=C1N(CC)C[C@@H]2[C@@H]3C(=O)N(C)C(=O)[C@@H]3[C@](C)(C(=O)OC)N12		inactive: 17.2%
COc1ccc2sc(-c3ccccc3OC)c(-c3ccc(OC)nc3)c2c1	inconclusive: 25.9 µM [activator, partial curve, poor fit]	

# (next part)

SMILES,Potency,"activity change, negative = inhibition"
CC(=O)Nc1ccc(NC(=O)CCCc2c[nH]c3ccccc23)cc1,,inactive: 4.54%
COCc1[nH]nc2c1C1(C(=O)N(C)c3ccccc31)C(C#N)=C(N)O2 (stereo not drawn),,inactive: 12.3%
Cc1cc(C)cc(NC(=S)Nc2ccc3cn[nH]c3c2)c1,"inconclusive: 0.461 µM [inhibitor, partial curve, poor fit]",
O=c1c2[nH]c3ccccc3c2ncn1C1CCCCC1,"inconclusive: 12.6 µM [activator, partial curve]",
O=S(=O)(c1ccccc1)c1cnn(-c2ccccc2)c1-c1ccc(F)cc1,"inconclusive: 29.1 µM [inhibitor, single point]",
Cc1cccc(Cn2c(SCCN3CCOCC3)nc3c2c(=O)n(C)c(=O)n3C)c1,"inconclusive: 23.1 µM [inhibitor, partial curve, poor fit]",
Cc1sc(NC(=O)c2ccc(Br)s2)c(C(N)=O)c1C,"inconclusive: 2.31 µM [activator, full curve]",
Cc1cccc(C)c1N1CCN(C(=O)N2CCCCC2)CC1,"inconclusive: 18.3 µM [inhibitor, partial curve, poor fit]",
COc1cc(OC)cc(C(=O)NNC(=S)Nc2ccc(S(N)(=O)=O)cc2)c1,,inactive: 0%
CCN1CCCC1CNCc1ccc(OCc2ccc(Cl)nc2)c(OC)c1 (stereo not drawn),"inconclusive: 18.3 µM [activator, single point]",
O=C(N/N=C/c1c(Cl)[nH]c2ccccc12)c1sc2ccccc2c1Cl,"inconclusive: 18.4 µM [inhibitor, single point]",
COC(=O)CC1COc2ccccc2N1C(=O)c1ccc(OC)cc1 (stereo not drawn),,inactive: -4.42%
COc1cc(OC)cc(C(=O)NC(=S)N2CCCCC2c2cccnc2)c1 (stereo not drawn),,inactive: -23.6%
O=C(Nc1ccc2c(c1)oc1ccccc12)c1ccc2c(c1)OCO2,"inconclusive: 16.4 µM [activator, partial curve]",
NC(=O)c1ccc(-n2nnnc2SCC(=O)NC2CCCCC2)cc1,"inconclusive: 1.3 µM [inhibitor, single point]",
CCC(=NCc1ccccc1)c1c(C(F)(F)F)[nH]n(-c2nc3ccccc3s2)c1=O,"inconclusive: 9.2 µM [activator, partial curve]",
O=C(/C=C/c1cccs1)Nc1nccs1,"inconclusive: 9.2 µM [activator, partial curve]",
CCN(CC(O)CON=C1c2ccccc2-c2ccccc21)S(=O)(=O)c1ccc(C)cc1 (stereo not drawn),,inactive: -28.8%
O=C(Nc1ccccn1)c1ccc(-c2ccccc2)cc1,"inconclusive: 0.366 µM [activator, full curve]",
S=c1[nH]nc(-c2ccncc2)n1/N=C/C=C/c1ccccc1,"inconclusive: 20.6 µM [inhibitor, single point]",
Clc1ccccc1N1CCN(c2ncnc3nc[nH]c23)CC1,,inactive: 20.6%
Cc1ccc(NC(=O)NCCN2CCCCC2)cc1,"inconclusive: 23.1 µM [activator, partial curve, poor fit]",
CCCc1[nH]n(-c2ccc([N+](=O)[O-])cc2)c(=O)c1C(C)=NCc1ccncc1,"inconclusive: 23.1 µM [inhibitor, partial curve, poor fit]",

SMILES,Potency,"activity change, negative = inhibition"
COc1ccc(NC(=O)CSc2nnc3ccc(-c4ccccn4)nn23)c(OC)c1,"inconclusive: 29.1 µM [inhibitor, single point]",
Nc1cc(N)nc(SCCOc2ccccc2)n1,"inconclusive: 18.4 µM [activator, single point]",
COc1ccc(N(CC(=O)Nc2ccc3c(c2)OCO3)S(=O)(=O)c2ccc(F)cc2)cc1,,inactive: -6.71%
CCN(CC)CCNC(=O)c1ccc(NC(=O)/C=C/c2cc(OC)c(OC)c(OC)c2)cc1,"inconclusive: 18.3 µM [activator, partial curve]",
O=C(c1ccco1)n1c(=S)nc2ccccn21,"inconclusive: 6.51 µM [activator, partial curve]",
CC1CC=C(c2ccccc2)C(=S)N1 (stereo not drawn),"inconclusive: 20.6 µM [inhibitor, partial curve]",
COc1cccc(-c2c(C#N)c(N)nc3c2c(C)nn3-c2ccccc2)c1O,"inconclusive: 32.6 µM [inhibitor, single point]",
COCCCn1c(=O)c2sccc2n2c(CCCC(=O)NCc3cccc(OC)c3)nnc12,,inactive: 0.552%
CC1CCN(C(=O)CSc2nc3[nH]ncc3c(=O)[nH]2)CC1,"inconclusive: 20.6 µM [activator, partial curve, poor fit]",
Cc1ccc2nc(/C=C/c3cccc(F)c3)ccc2c1,"inconclusive: 2.31 µM [activator, full curve]",
O=C(COc1cccc(Cl)c1Cl)Nc1ccc2c(c1)CCC2,"inconclusive: 14.6 µM [activator, single point]",
O=C(NCCC1=CCCCC1)C(=O)NCc1ccncc1,,inactive: -2.81%
O=[N+]([O-])c1cc(-c2cnc3ccccc3n2)ccc1Oc1ccc(F)cc1,"inconclusive: 16.4 µM [activator, single point]",
Cc1cn2c(nc(=O)c3cccnc32)s1,,inactive: -8.35%
O=C(CN1CCCC(O)C1)N1c2ccccc2Sc2ccc(C(F)(F)F)cc21 (stereo not drawn),,inactive: 5.38%
CCOC(=O)c1cnc2ccc(C(=O)OC)cc2c1NCCN1CCOCC1,,inactive: -21.1%
Nc1nc(-c2ccc(Br)cc2)cc(C(F)(F)F)n1,"inconclusive: 23.1 µM [activator, partial curve, poor fit]",
COC(=O)CSc1nc(-c2ccccc2)c2c(c1C#N)CCCC2,,inactive: -1.5%
O=C1c2ccccc2C(=O)N1CCCCc1cn(C[C@H]2CC[C@H](Cn3cc(CCCCN4C(=O)c5ccccc5C4=O)nn3)O2)nn1,active: 8.2 µM,
CN(Cc1ccccc1)S(=O)(=O)c1cccc2cccnc12,,inactive: -13.5%
Cc1cc(=O)oc(C)c1C(=O)OCC(=O)c1ccccc1,"inconclusive: 35.5 µM [activator, single point]",
CCOc1ccc2c(c1)C(=NNC(=O)c1ccncc1)c1cc(OCC)ccc1-2,"inconclusive: 4.61 µM [inhibitor, partial curve]",
